Data published in PMC12451656, “HMGB1 B‑Box Domain Associates Promote Protein–Polyelectrolyte Interactions” (The Journal of Physical Chemistry. B, 2025).
No constants are given. Whether binding was seen depends on the method and setting. Some results given as binding are weak or reduced against the parent protein; the word gives no strength.

Experiments:
[1] = target: HMGB1 B-box domain (human) (UniProt P09429); test: dynamic light scattering; as-prepared, unfiltered B-box, 30 μM, 25 mM Tris-HCl pH 6.9, 150 mM NaCl, 25 °C, backscattering mode; the retentate of the 30 kDa filter was also measured (Figure S6); both purified
[2] = target: HMGB1 B-box domain (human) (UniProt P09429); test: condition: only after filtration through a 30 kDa cutoff membrane; 16 μM; dynamic light scattering; B-box flow-through of a 30 kDa cutoff filter, 16 μM, 25 mM Tris-HCl pH 6.9, 150 mM NaCl, 25 °C; followed over 6 h; both purified
[3] = target: HMGB1 B-box domain (human) (UniProt P09429); test: ultrafiltration (30 kDa cutoff) + UV-vis absorbance at 280 nm; 450 μL of 147 μM B-box in 25 mM Tris-HCl pH 6.9, 150 mM NaCl, spun through a 30 kDa Amicon filter at 4 °C; concentrations of the initial, top and bottom solutions by A280; both purified

binding [1]: binds weakly
binding [2]: no binding
binding [3]: binds weakly
B1: HMGB1 B-box domain (domain or fragment, human)
chain: MARIDPNAPKRPPSAFFLFCSEYRPKIKGEHPGLSIGDVAKKLGEMWNNTAADDKQPYEKKAAKLKEKYEKDIAAYRAKGKPDAAKKGVV
notes: initiator methionine followed by the triplet alanine-arginine-isoleucine (ARI), inserted through the forward primer for better expression; HMGB1 (high mobility group box 1), human, B-box domain, cloned from the human HMGB1 cDNA; Numbers count on: the construct (Cys19 = Cys106 of full-length HMGB1; Trp46); By the reverse primer, the XhoI site adds LE between V176 and the SGS-His8 tag; The DLS …
